{
  "sequences": {"note": "Chains of the proteins cited; added tags and fusions are not shown.", "UniProt O75907, whole entry": "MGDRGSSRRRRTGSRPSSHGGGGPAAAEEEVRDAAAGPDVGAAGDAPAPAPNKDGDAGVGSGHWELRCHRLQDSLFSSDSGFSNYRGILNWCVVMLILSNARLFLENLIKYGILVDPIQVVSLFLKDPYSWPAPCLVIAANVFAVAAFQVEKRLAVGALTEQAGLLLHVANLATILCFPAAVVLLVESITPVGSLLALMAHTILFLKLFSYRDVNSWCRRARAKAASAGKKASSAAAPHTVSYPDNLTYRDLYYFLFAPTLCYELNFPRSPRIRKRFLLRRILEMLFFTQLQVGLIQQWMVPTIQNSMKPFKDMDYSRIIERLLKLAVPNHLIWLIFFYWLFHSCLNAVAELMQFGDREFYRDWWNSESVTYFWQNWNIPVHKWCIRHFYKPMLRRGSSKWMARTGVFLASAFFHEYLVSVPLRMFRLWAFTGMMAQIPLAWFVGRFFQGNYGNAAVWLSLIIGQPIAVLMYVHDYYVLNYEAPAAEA"},
  "source": "patent US20140088124A1",
  "about": "“IMIDAZOLE DERIVATIVES” (priority 2011, published 2014)",
  "target": "human DGAT1 (Homo sapiens, UniProt O75907)",
  "test": "DGAT1 CPM Assay",
  "conditions": "human DGAT1, CPM fluorescence, 1 hour incubation at room temperature; tested form: TFA",
  "note": "pIC50: −log10 of the molar value. The structures given here were assigned with low confidence; some may be wrong.",
  "data": [
    {"smiles": "CC(C)(C)S(=O)(=O)NC(=O)[C@H]1CC[C@H](OC2CCN(c3ccc(-c4nc5cc(F)ccc5[nH]4)cn3)CC2)CC1", "values": [
      {"measurement": "pIC50", "value": 7.82}
    ]}
  ]
}
